Experimental data taken from PubChem BioAssay AID256 (DTP/NCI, 2004).
The list shows only some results of the screen, not a fair sample: it gathers tests that were run many times, whatever their T/C, doses with no T/C, and many T/C values between a quarter and a half above the control. Further doses and runs are listed elsewhere. T/C gives the treated animals as a percentage of the vehicle group. Some doses have a count of surviving animals in place of a T/C: the source files T/C as zero there, which appears to mark a toxic dose or a test without result, not a measured value. Some doses without a T/C left all or most animals alive at the check, yet need not have been tolerated: the source hardly ever lists a survival T/C far under the control, and the zero likely stands for such cases as well. Survivors were counted at the toxicity check, usually on the fifth day, unless a day is given; later deaths do not show. Schedules are NCI's codes, read here as Q, the interval in days (D) or hours (H), X, the number of doses. For survival time, the PubChem record calls one and a half times the control and up active, and a quarter to a half above the control has no call in these data; cut-offs in other NCI protocols can differ. Some doses were run more than once; their values stand side by side, smallest first.

Test system: CD2F1 mice, L1210 leukemia ip, survival T/C
Assay: NCI In Vivo Anticancer Drug Screen. Data for tumor model L1210 Leukemia (intraperitoneal) in CD2F1 (CDF1) mice
Details: higher T/C = longer survival
Summary of the method: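 In this screen, transplantable tumors were grown in mice given either the compound or its vehicle. Results were expressed as the treated measurement relative to the control measurement.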

[1] = T/C endpoint: mean survival time, dose: 200.0 mg/kg/injection, schedule: Q04DX003 (ip), vehicle: saline with Tween-80
[2] = T/C endpoint: mean survival time, dose: 400.0 mg/kg/injection, schedule: Q04DX003 (ip), vehicle: saline with Tween-80
[3] = T/C endpoint: mean survival time, dose: 200.0 mg/kg/injection, schedule: Q04DX002 (ip), vehicle: saline with Tween-80

In the case of `O=[N+]([O-])c1cc(CCl)ccc1CCl`, the survivor count (T/C endpoint: mean survival time, dose: 300.0 mg/kg/injection, schedule: Q01DX001 (ip), vehicle: other) is reported as 3 of 6.

With `Cc1c2ccccc2c(C)c2c1cc(C(=O)O)c1ccccc12` the T/C (T/C endpoint: median survival time, dose: 100.0 mg/kg/injection, schedule: Q01DX009 (ip), vehicle: sodium bicarbonate) was 127 and 128 % of control, the T/C (T/C endpoint: median survival time, dose: 200.0 mg/kg/injection, schedule: Q01DX009 (ip), vehicle: sodium bicarbonate) was 140 % of control and the T/C (T/C endpoint: median survival time, dose: 400.0 mg/kg/injection, schedule: Q01DX009 (ip), vehicle: sodium bicarbonate) was 135 % of control.

With `CN1COc2c(Cl)cc(Cl)cc2C1` the survivor count [1] was 5 of 6 and the survivor count [2] was 3 of 6.

`CN=C([Se])NC` was tested, and the survivor count (T/C endpoint: mean survival time, dose: 50.0 mg/kg/injection, schedule: Q04DX002 (ip), vehicle: saline with Tween-80) was 0 of 3, the survivor count (T/C endpoint: mean survival time, dose: 100.0 mg/kg/injection, schedule: Q04DX002 (ip), vehicle: saline with Tween-80) was 0 of 3 and the survivor count [3] was 0 of 3. For the same compound, the survivor count (T/C endpoint: mean survival time, dose: 400.0 mg/kg/injection, schedule: Q04DX002 (ip), vehicle: saline with Tween-80) was 0 of 3.

In the case of `OC1CCCCCCCCCCC1C(O)(C(F)(F)F)C(F)(F)F` (stereo not given), the survivor count (T/C endpoint: mean survival time, dose: 400.0 mg/kg/injection, schedule: Q01DX001 (ip), vehicle: saline with Tween-80) is reported as 1 of 6.

`Cn1ccn(C2CCCCC2)c1=O` was tested, and the survivor count [1] was 0 of 6 and the survivor count [2] was 0 of 6.

`COC1=CC(C)(C)C2=C(CN(C)CC2)C1(C)C` was tested, and the survivor count (T/C endpoint: mean survival time, dose: 75.0 mg/kg/injection, schedule: Q01DX001 (ip), vehicle: saline) was 3 of 6, the survivor count (T/C endpoint: mean survival time, dose: 150.0 mg/kg/injection, schedule: Q01DX001 (ip), vehicle: saline) was 0 of 6 and the survivor count (T/C endpoint: mean survival time, dose: 300.0 mg/kg/injection, schedule: Q01DX001 (ip), vehicle: saline) was 0 of 6.

For `O/N=C(\c1ccccc1)C1C(/C(=N/O)c2ccccc2)C1c1ccccc1` (stereo not given), the survivor count [3] was 3 of 3.

For `O=C(OCC1OC(n2cnc3cc(Cl)c(Cl)cc32)C(OC(=O)c2ccccc2)C1OC(=O)c1ccccc1)c1ccccc1` (stereo not given), the survivor count (T/C endpoint: mean survival time, dose: 200.0 mg/kg/injection, schedule: Q01DX005 (ip), vehicle: distilled water + Tween-80) was 6 of 6.

`[O-][n+]1onc2ccc(Cl)cc21` was tested, and the survivor count (T/C endpoint: mean survival time, dose: 200.0 mg/kg/injection, schedule: Q04DX003 (ip), vehicle: Klucel (hydroxypropylcellulose) (HPC)) was 2 of 6 and the survivor count (T/C endpoint: mean survival time, dose: 400.0 mg/kg/injection, schedule: Q04DX003 (ip), vehicle: Klucel (hydroxypropylcellulose) (HPC)) was 0 of 6.

`C1C2CC3CC3CC12` (stereo not given) was tested, and the survivor count [1] was 3 of 6 and the survivor count [2] was 0 of 6.

With `CC12CCCC1=[N+]1CCCCC1CC2=O` (stereo not given) the survivor count (T/C endpoint: mean survival time, dose: 400.0 mg/kg/injection, schedule: Q04DX003 (ip), vehicle: saline) was 0 of 6.

`CC(C)NC(=O)CCCCN(C(=O)OCc1ccccc1)N(C)C(=O)OCc1ccccc1` was tested, and the survivor count (T/C endpoint: mean survival time, dose: 25.0 mg/kg/injection, schedule: Q04DX003 (ip), vehicle: Klucel (hydroxypropylcellulose) (HPC)) was 1 of 6.

With `CCCC[P+](CCCC)(CCCC)CC(=O)C[P+](CCCC)(CCCC)CCCC` the survivor count (T/C endpoint: mean survival time, dose: 100.0 mg/kg/injection, schedule: Q01DX001 (ip), vehicle: saline) was 0 of 6, the survivor count (T/C endpoint: mean survival time, dose: 200.0 mg/kg/injection, schedule: Q01DX001 (ip), vehicle: saline) was 0 of 6 and the survivor count (T/C endpoint: mean survival time, dose: 400.0 mg/kg/injection, schedule: Q01DX001 (ip), vehicle: saline) was 0 of 6.

With `COc1cc2cc(c1Cl)N(C)C(=O)CC(OC(=O)C(C)N(C)C(=O)C(C)C)C1(C)OC1C(C)C1CC(O)(NC(=O)O1)C(OC)/C=C/C=C(C)C2` (stereo not given) the T/C (T/C endpoint: mean survival time, dose: 20.0 micrograms/kg/injection, schedule: Q01DX009 (ip), vehicle: saline + alcohol) was 125 % of control.

For `NNC(=O)c1cc(NN)ccn1`, the survivor count (T/C endpoint: mean survival time, dose: 200.0 mg/kg/injection, schedule: Q01DX009 (ip), vehicle: saline with Tween-80) was 1 of 6 and the survivor count [2] was 6 of 6.

For `O=C1CC(=O)C(Br)=C1Br`, the survivor count (T/C endpoint: mean survival time, dose: 12.5 mg/kg/injection, schedule: Q04DX003 (ip), vehicle: saline with Tween-80) was 3 of 6, the survivor count (T/C endpoint: mean survival time, dose: 25.0 mg/kg/injection, schedule: Q04DX003 (ip), vehicle: saline with Tween-80) was 1 of 6 and the survivor count (T/C endpoint: mean survival time, dose: 50.0 mg/kg/injection, schedule: Q04DX003 (ip), vehicle: saline with Tween-80) was 0 of 6.

For `Cc1ccc(C(=O)Nc2ccc(S(=O)(=O)O)c3cc(S(=O)(=O)O)cc(S(=O)(=O)O)c23)cc1NC(=O)c1cccc(NC(=O)Nc2cccc(C(=O)Nc3cc(C(=O)Nc4ccc(S(=O)(=O)O)c5cc(S(=O)(=O)O)cc(S(=O)(=O)O)c45)ccc3C)c2)c1`, the survivor count (T/C endpoint: median survival time, dose: 100.0 mg/kg/injection, schedule: Q01DX005 (ip), vehicle: saline) was 5 of 6 and the survivor count (T/C endpoint: median survival time, dose: 200.0 mg/kg/injection, schedule: Q01DX005 (ip), vehicle: saline) was 1 of 6.
